# Results: PubChem BioAssay AID1026 (Columbia University Molecular Screening Center, 2008)
# Sequences of proteins named here, by UniProt entry; tags and fusion partners are left off.
# UniProt P34913, whole entry, looked up: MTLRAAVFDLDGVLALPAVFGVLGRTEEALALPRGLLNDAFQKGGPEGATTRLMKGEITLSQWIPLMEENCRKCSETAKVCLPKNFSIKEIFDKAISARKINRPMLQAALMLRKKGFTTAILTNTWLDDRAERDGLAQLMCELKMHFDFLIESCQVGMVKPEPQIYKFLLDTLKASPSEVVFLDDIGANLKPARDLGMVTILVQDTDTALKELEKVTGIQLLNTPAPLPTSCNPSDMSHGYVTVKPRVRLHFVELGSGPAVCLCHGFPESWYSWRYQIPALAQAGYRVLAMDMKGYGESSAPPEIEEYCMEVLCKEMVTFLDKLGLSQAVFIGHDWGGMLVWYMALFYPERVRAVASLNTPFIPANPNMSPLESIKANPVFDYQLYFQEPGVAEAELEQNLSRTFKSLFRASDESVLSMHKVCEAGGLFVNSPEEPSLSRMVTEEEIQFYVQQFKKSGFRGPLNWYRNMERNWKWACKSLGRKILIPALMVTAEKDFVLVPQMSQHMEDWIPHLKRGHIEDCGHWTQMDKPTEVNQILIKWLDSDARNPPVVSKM
# The entries are a selection whose mix differs from that of the whole data set. The source made the active and inactive calls. The rule behind the calls is not given here.
# Target: Bifunctional epoxide hydrolase 2 (Homo sapiens) (UniProt P34913)
# Assay: sEH inhibitor concentration-response potency, dose response, biochemical, human sEH, fluorescence, Infinite200 (AID 1026)
# Conditions: recombinant human sEH, fluorogenic substrate, at 0.2 µM, hits give high values
smiles,measurement,value
CCN(CC)S(=O)(=O)c1cccc(C(=O)Nc2ccc(Cl)cn2)c1,inhibition,inactive: 49.7%
